One compound from US20160363580A1, “Methods of Metabolic Kinetic Phenotyping and Uses Thereof” (The Texas A&M University System, priority 2015, published 2016) can be followed below.

Data set [1] can be described thus: Arterial plasma Phe tracee concentration during the experimental period. Type of data set: in vivo, pigs. The note with it: median over the experimental period.
Data set [2] is described as follows: Pulse tracer protocol (bolus L-[15N]-Phe), two compartmental model of Phe kinetics. The format is in vivo, pigs. Here is the method: Female Yorkshire cross/domestic pigs (20-25 kg BW) were used in the experimental studies. The pigs were housed in steel pens (2 m×3 m) in a controlled housing facility with large animal cubicle at room temperature 22-24° C. with 12 hours light-dark cycle. The pigs were fed with standardized food 1 kg/day (Harlan Teklad Vegetarian Pig/Sow Grower)) and provided water ad libitum.
Animals received catheters and a jejunal stoma during a surgical procedure. During midline laparotomy, catheters were placed into the abdominal aorta for blood sampling, and in the caval vein for administering post-surgery medication and experiment related tracer infusions. A second arterial catheter was placed to monitor mean arterial blood pressure (MAP). A Swan ganz catheter (5 Fr, #132F5, Edwards life sciences, Irvine, Calif., USA) was placed via the right jugular vein to monitor mean pulmonary blood pressure (MPAP). Both preoperative and postoperative cares were standardized. During the recovery period (7-10 days) animals were accustomed to a small movable cage (0.9×0.5×0.3 m). The experiments were performed in this cage on awake animals. This study was approved by the animal experiment ethics committee of University of Arkansas Medical Sciences.
For the induction of sepsis, a live Pseudomonas aeruginosa (PM) human strain is used (IRS 12-4-4, Shriners burns institute, University of Texas Medical Branch, Galveston). Originally, this PM strain was isolated from a burnt patient at Brook Army Medical Center in San Antonio, Tex. […] Hemodynamics was continuously monitored to ensure that the hyperdynamic state was kept in the expected ranges for severe sepsis (body temp increase of 2-3° C., respiratory rate increased, MPAP increased but <35 mmHg, heart rate increased but <200 BPM).
The experiment started after a recovery period of 7-10 days. […] Fluid resuscitation (30 ml/kg bw/hour) was also started at T=0 h and hemodynamics were monitored continuously. […]

Take `N[C@@H](Cc1ccccc1)C(=O)O` [Phe, phenylalanine]: the “plasma Phe concentration” value in data set [1] (Healthy pigs) came out at 64.6 ± 4.0 µM. In addition, in data set [1] (Sepsis pigs), the “plasma Phe concentration” value came out at 113 ± 8.3 µM. Further, in data set [2] (PULSE method, p=0.0001), the “WbRa of Phe, sepsis group versus healthy” value is listed as “higher”. In addition, in data set [2] (pigs), the “WbRa, Pulse method relative to prime-constant infusion” value is “about 1.6 times” and the “intracellular protein breakdown relative to WbRa using pulse method” value came to 1.7 times.
